Test results: the supplement of paper PMC11006884
What follows is the remainder of the data, with few or none of the targets with a hit. Single values of this set are uncertain. This is a selection; strong and weak results do not stand in their true shares.

Sequences of proteins named here, by UniProt entry; tags and fusion partners are left off. A change or cut given only in a name is not applied to a line headed by its entry.
UniProt Q9Y371: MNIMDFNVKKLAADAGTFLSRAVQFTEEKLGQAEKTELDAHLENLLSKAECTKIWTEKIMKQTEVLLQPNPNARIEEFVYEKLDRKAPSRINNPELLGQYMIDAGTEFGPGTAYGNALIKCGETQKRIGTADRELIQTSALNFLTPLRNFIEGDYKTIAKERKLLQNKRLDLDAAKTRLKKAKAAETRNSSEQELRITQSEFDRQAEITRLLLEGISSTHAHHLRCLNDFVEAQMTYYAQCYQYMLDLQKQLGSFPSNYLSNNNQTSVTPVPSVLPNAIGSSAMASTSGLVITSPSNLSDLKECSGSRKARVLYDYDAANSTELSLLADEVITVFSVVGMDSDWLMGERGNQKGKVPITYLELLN
UniProt Q9Y314: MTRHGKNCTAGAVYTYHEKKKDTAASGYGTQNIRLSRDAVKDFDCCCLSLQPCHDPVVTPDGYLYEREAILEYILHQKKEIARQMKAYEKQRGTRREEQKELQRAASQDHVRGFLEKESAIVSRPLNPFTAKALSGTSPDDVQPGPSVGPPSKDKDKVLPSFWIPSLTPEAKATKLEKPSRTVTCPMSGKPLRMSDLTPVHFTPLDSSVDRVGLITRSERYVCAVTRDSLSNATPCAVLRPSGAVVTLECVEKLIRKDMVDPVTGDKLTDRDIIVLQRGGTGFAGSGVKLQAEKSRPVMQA
UniProt Q9ULG1, whole entry, looked up: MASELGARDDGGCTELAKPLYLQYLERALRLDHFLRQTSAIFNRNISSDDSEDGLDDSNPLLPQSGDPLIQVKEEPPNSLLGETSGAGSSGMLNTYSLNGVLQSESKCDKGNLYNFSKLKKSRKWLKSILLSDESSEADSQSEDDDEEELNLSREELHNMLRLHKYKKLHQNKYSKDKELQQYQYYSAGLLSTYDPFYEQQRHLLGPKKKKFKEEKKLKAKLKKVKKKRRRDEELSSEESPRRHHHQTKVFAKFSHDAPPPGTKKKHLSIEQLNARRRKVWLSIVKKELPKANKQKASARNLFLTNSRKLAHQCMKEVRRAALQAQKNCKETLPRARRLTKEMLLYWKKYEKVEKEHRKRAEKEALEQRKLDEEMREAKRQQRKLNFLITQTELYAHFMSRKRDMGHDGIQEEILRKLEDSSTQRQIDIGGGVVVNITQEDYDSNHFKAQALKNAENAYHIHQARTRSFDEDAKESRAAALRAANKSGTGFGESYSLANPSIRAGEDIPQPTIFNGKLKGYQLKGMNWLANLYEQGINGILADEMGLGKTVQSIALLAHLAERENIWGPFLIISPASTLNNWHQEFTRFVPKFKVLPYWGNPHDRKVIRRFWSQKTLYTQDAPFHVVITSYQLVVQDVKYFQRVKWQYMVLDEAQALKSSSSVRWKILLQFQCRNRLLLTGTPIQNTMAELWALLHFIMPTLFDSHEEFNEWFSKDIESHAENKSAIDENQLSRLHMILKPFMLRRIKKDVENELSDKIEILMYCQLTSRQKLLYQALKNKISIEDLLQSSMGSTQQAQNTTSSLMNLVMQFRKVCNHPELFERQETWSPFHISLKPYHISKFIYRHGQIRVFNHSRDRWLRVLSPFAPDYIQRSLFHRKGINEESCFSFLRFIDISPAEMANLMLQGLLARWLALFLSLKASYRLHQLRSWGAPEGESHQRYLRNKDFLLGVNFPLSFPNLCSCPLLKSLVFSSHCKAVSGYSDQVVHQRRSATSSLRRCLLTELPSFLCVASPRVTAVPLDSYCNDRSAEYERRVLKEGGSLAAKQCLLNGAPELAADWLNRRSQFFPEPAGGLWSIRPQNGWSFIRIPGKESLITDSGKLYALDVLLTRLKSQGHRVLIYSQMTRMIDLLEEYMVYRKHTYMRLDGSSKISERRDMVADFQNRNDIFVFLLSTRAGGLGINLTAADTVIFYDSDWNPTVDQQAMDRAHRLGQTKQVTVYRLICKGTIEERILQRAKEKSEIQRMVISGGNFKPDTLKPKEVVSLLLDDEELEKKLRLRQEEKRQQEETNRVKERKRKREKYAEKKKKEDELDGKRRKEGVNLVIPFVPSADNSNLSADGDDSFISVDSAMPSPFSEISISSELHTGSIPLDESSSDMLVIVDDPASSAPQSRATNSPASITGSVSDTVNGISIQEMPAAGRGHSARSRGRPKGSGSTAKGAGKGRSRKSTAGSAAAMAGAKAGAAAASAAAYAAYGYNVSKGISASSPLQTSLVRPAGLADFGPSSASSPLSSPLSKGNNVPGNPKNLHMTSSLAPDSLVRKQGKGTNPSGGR
UniProt Q9ULL5: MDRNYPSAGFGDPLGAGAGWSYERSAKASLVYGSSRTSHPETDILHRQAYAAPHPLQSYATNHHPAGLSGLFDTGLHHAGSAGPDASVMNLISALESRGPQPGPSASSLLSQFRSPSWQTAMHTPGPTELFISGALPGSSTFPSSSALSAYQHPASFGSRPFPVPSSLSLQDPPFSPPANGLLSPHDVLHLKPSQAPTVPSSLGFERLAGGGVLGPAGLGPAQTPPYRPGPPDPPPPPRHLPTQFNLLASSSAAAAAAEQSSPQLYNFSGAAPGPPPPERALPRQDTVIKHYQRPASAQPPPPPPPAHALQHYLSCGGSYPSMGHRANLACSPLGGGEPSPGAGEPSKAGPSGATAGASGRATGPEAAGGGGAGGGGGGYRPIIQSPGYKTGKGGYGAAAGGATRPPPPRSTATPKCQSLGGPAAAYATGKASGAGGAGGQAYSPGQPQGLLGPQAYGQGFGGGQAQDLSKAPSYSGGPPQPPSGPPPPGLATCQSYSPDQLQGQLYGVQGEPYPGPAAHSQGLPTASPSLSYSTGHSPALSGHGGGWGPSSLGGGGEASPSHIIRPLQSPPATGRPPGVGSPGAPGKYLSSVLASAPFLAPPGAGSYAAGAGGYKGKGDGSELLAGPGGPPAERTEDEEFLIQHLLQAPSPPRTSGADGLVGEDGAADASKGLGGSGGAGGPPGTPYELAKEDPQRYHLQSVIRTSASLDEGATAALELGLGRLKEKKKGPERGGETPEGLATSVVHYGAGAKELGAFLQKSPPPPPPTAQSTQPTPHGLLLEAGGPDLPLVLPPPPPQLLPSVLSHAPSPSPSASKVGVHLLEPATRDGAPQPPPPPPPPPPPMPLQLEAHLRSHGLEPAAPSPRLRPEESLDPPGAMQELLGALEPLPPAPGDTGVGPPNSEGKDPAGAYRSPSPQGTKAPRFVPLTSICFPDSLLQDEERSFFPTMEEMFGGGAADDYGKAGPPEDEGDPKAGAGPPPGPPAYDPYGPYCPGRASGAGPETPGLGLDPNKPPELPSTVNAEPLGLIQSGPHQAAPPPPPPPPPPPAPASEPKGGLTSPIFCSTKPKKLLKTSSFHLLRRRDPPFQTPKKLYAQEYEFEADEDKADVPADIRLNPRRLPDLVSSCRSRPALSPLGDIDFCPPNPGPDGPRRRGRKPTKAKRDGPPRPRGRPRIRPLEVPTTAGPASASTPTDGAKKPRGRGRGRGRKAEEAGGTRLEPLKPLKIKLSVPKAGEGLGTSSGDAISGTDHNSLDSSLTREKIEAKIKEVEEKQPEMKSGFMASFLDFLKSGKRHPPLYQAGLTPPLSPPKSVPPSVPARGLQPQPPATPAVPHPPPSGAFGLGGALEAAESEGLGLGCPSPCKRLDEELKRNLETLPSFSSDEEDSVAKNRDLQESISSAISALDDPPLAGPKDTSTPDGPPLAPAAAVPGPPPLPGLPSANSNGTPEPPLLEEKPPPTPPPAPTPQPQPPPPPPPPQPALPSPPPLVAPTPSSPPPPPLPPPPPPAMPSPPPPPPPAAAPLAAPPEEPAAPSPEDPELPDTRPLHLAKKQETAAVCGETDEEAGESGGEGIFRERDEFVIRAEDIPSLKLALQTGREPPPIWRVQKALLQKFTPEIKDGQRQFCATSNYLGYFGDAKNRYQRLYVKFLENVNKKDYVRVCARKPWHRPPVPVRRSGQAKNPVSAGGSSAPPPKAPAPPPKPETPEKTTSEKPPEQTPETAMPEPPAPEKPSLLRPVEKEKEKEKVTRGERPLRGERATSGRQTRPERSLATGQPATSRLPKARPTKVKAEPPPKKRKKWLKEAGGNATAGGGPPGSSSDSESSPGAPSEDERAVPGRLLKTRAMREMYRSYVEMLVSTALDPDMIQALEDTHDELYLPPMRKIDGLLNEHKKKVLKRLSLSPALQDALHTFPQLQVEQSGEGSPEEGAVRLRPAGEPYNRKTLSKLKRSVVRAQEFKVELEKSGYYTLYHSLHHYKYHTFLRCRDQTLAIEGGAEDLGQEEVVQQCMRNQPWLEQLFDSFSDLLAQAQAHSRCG
UniProt Q9ULC4: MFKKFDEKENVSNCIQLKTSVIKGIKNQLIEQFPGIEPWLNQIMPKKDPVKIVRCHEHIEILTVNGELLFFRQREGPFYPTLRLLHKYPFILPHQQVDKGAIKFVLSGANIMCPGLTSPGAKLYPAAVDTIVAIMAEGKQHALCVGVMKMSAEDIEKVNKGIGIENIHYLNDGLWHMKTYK
UniProt Q9UJU6: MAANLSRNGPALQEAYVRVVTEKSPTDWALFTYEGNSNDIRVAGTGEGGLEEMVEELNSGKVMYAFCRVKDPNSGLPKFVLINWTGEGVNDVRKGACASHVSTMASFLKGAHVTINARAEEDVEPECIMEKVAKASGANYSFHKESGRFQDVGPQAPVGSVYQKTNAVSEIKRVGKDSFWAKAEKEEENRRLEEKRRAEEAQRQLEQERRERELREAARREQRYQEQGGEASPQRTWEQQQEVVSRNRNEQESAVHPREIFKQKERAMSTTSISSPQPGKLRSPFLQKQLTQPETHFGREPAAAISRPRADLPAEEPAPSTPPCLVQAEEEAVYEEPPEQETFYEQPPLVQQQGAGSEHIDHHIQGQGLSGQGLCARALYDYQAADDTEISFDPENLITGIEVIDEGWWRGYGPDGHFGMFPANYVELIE
UniProt Q9Y3D2: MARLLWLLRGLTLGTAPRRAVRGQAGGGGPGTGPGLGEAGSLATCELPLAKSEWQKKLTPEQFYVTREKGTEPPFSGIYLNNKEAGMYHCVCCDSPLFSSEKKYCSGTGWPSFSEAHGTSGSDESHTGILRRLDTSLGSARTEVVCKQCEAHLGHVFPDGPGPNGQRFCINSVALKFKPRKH
UniProt Q9UIG0: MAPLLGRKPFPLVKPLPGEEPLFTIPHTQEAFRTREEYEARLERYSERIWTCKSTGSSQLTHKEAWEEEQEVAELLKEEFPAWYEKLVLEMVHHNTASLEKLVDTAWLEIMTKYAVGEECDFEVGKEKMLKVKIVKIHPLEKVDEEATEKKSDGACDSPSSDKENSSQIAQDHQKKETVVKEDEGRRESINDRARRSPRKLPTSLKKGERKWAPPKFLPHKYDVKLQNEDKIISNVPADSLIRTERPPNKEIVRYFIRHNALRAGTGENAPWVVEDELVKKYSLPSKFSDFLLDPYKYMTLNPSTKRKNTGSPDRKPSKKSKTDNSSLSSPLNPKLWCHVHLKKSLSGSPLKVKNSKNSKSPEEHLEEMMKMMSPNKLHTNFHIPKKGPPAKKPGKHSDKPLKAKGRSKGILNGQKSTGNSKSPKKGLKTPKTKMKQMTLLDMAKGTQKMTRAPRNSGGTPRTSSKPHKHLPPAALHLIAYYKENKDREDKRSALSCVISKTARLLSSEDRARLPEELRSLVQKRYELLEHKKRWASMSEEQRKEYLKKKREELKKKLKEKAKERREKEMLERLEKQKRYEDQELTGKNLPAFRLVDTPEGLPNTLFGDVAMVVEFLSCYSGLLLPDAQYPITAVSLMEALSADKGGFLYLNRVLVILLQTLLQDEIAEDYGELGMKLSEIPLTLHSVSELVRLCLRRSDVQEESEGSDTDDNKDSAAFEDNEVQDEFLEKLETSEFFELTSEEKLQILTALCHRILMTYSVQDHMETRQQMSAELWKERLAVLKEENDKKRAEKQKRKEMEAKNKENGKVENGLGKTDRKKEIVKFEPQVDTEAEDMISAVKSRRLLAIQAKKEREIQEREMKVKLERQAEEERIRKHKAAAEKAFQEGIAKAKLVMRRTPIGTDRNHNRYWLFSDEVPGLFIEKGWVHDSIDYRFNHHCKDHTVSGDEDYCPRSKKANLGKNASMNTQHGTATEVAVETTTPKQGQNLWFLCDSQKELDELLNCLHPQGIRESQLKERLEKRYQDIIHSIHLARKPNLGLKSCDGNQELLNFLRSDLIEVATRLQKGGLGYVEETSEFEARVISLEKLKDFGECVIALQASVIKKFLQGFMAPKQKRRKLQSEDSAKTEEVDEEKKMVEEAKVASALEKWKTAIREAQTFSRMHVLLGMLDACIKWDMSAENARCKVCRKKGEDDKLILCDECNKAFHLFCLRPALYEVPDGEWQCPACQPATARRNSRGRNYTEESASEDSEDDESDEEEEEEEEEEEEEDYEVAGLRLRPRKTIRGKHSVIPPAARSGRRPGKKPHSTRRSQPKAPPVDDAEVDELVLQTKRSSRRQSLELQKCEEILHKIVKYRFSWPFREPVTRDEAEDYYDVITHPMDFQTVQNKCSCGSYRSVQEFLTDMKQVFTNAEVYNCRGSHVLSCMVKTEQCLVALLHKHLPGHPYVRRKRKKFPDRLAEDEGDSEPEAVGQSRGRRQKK

The targets below were run with COC(=O)/C=C/c1ccccc1 [methyl cinnamate] (assay: log2 ratio of iodoacetamide-alkyne labeling of the cysteine site, DMSO over compound (competition); higher = stronger covalent engagement of the cysteine by the compound, active = 1 or more). Conditions: 500 µM; treatment time 1 h; system: HEK293T cell lysate.
Procedure, shortened: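 Three replicates, each with duplicate channels, were prepared from HEK293T lysate (2 mg/mL) treated with vehicle or electrophile at 500 µM for 1 h at ambient temperature. Iodoacetamide alkyne was then applied for 1 h, and samples were clicked to sCIP-TMT reagents, pooled, trypsin-digested overnight at 37 °C, enriched on streptavidin, acid-eluted and analysed on Orbitrap Eclipse LC-MS/MS with FAIMS, with FragPipe quantification. The log2 competition ratio per cysteine is the mean control-channel divided by the mean compound-channel reporter intensity. Cysteines quantified in only one replicate were left out.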

| Target | log2 ratio of iodoacetamide-alkyne labeling |
| --- | --- |
| SH3GLB1 C121 (UniProt Q9Y371) | inactive: 0.25 |
| MACF1 C5049 (UniProt Q9UPN3) | inactive: 0.0197 |
| UniProt Q9ULE6_C845 | inactive: 0.28 |
| NOSIP C8 (UniProt Q9Y314) | inactive: 0.493 |
| VPS28 C96 (UniProt Q9UK41) | inactive: -0.0182 |
| MRPS16 C26 (UniProt Q9Y3D3) | inactive: 0.0942 |
| ACOT9 C299 (UniProt Q9Y305) | inactive: 0.0547 |
| TIMELESS C1126 (UniProt Q9UNS1) | inactive: 0.521 |
| POLDIP2 C143 (UniProt Q9Y2S7) | inactive: 0.266 |
| INO80 C13 (UniProt Q9ULG1) | inactive: 0.13 |
| MYO6 C691 (UniProt Q9UM54) | inactive: -0.327 |
| STUB1 C48 (UniProt Q9UNE7) | inactive: 0.134 |
| NOSIP C185 (UniProt Q9Y314) | inactive: 0.336 |
| STUB1 C232 (UniProt Q9UNE7) | inactive: -0.0183 |
| PRR12 C322 (UniProt Q9ULL5) | inactive: 0.0745 |
| RABGAP1 C476 (UniProt Q9Y3P9) | inactive: -0.0391 |
| LUC7L2 C43 (UniProt Q9Y383) | inactive: 0.0239 |
| MTO1 C77 (UniProt Q9Y2Z2) | inactive: 0.0953 |
| AKAP8L C128 (UniProt Q9ULX6) | inactive: 0.0131 |

Some of the entries so far, with tabs.
Target	log2 ratio of iodoacetamide-alkyne labeling
LUC7L2 C43 (UniProt Q9Y383)	inactive: 0.0239
MTO1 C77 (UniProt Q9Y2Z2)	inactive: 0.0953

Additional results

| Target | log2 ratio of iodoacetamide-alkyne labeling |
| --- | --- |
| XPO7 C15 (UniProt Q9UIA9) | inactive: 0.0284 |
| BAG5 C213 (UniProt Q9UL15) | inactive: -0.204 |
| MINPP1 C475 (UniProt Q9UNW1) | inactive: 0.23 |
| ACIN1 C546 (UniProt Q9UKV3) | inactive: 0.424 |
| CPSF3 C498 (UniProt Q9UKF6) | inactive: 0.206 |
| MTMR6 C214 (UniProt Q9Y217) | inactive: -0.166 |
| STRAP C305 (UniProt Q9Y3F4) | inactive: 0.542 |
| SHPK C105 (UniProt Q9UHJ6) | inactive: -0.0929 |
| CPSF3 C527 (UniProt Q9UKF6) | inactive: -0.106 |
| TPX2 C301 (UniProt Q9ULW0) | inactive: 0.514 |
| MBD1 C525 (UniProt Q9UIS9) | inactive: 0.29 |
| SRRM2 C1480 (UniProt Q9UQ35) | inactive: 0.351 |
| MCTS1 C14 (UniProt Q9ULC4) | inactive: 0.276 |
| HECTD1 C2579 (UniProt Q9ULT8) | inactive: 0.00497 |
| DBNL C127 (UniProt Q9UJU6) | inactive: 0.189 |
| HERC5 C468 (UniProt Q9UII4) | inactive: 0.249 |
| MSRB2 C105 (UniProt Q9Y3D2) | inactive: -0.0371 |
| BAZ1B C953 (UniProt Q9UIG0) | inactive: 0.0695 |
